Experimental data: the supplement of paper PMC10849652
The other results are listed elsewhere or left out.

Amino acid sequences for entries named in this document (tags omitted). A change or cut given only in a name is not applied to a line headed by its entry.
UniProt P08621, whole entry, looked up: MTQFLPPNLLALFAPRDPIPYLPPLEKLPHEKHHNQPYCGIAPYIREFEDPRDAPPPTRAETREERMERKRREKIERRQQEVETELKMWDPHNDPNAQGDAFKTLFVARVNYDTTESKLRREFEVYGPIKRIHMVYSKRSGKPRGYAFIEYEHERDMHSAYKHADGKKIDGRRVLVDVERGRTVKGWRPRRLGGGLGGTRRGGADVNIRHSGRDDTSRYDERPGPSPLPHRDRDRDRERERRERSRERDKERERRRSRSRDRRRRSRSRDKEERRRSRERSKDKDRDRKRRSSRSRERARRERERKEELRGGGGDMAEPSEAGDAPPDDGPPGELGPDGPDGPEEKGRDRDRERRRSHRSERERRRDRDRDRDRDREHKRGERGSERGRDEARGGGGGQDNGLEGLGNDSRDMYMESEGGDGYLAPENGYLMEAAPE
UniProt P51532, whole entry, looked up: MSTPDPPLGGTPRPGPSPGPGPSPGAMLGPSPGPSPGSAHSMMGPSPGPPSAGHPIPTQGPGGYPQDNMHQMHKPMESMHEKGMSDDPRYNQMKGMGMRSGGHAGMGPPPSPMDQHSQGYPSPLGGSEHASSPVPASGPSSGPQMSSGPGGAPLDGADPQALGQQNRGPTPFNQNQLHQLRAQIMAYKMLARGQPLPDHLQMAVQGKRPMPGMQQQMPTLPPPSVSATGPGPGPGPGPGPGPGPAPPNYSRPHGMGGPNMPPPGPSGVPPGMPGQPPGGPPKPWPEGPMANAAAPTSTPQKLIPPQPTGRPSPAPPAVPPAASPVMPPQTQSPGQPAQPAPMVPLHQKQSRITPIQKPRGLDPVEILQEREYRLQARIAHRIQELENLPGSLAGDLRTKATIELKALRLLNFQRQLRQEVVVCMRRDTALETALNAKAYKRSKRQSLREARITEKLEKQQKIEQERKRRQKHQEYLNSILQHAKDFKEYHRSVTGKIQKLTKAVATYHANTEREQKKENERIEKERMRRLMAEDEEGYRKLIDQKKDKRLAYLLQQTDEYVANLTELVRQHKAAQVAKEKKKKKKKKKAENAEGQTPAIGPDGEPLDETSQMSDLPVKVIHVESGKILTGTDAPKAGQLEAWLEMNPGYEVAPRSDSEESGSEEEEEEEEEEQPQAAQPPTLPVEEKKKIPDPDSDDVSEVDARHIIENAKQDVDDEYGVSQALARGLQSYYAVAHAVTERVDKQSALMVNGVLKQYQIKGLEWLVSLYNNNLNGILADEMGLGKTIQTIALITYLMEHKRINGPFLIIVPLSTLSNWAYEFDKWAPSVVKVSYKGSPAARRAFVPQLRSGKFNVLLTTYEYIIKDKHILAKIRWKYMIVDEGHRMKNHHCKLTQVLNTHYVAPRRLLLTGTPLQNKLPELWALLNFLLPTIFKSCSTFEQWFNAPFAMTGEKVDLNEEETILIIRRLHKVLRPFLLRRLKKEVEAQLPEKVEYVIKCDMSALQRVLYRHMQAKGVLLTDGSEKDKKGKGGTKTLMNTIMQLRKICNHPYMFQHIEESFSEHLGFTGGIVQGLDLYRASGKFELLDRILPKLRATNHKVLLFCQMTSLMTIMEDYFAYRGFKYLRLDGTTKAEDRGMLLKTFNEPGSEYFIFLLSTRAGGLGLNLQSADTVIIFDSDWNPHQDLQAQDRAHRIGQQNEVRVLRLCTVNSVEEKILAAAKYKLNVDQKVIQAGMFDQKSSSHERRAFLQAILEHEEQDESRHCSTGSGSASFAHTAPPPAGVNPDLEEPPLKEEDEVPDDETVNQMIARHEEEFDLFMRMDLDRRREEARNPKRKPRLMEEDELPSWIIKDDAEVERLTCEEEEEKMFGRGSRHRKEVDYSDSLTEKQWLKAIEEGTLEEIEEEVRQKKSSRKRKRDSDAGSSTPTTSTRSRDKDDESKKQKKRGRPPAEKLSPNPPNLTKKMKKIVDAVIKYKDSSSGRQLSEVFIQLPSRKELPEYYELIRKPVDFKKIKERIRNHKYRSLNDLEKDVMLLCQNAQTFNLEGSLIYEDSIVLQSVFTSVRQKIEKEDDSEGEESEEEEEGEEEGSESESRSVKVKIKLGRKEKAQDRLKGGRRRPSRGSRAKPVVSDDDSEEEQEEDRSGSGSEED
UniProt Q969G3, whole entry, looked up: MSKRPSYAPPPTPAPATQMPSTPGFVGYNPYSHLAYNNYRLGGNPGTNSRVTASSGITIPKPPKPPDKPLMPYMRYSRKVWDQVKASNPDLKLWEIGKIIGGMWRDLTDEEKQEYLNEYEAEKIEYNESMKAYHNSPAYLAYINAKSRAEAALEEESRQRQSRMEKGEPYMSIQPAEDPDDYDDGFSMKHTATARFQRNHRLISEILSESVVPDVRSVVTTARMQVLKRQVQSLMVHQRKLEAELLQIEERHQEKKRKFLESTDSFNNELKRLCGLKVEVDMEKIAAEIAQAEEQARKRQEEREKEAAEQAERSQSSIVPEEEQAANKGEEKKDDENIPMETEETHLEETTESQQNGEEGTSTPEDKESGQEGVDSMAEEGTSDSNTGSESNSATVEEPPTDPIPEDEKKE
UniProt O95295: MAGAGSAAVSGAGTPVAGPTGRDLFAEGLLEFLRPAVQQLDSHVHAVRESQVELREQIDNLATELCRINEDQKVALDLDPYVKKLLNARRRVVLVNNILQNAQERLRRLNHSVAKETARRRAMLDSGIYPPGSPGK
UniProt O00161: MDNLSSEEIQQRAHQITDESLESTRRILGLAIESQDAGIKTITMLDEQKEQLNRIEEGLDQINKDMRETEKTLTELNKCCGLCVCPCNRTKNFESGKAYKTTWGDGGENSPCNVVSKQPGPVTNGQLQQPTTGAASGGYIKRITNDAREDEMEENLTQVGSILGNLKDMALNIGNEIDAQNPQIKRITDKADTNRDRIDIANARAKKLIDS
UniProt O60749: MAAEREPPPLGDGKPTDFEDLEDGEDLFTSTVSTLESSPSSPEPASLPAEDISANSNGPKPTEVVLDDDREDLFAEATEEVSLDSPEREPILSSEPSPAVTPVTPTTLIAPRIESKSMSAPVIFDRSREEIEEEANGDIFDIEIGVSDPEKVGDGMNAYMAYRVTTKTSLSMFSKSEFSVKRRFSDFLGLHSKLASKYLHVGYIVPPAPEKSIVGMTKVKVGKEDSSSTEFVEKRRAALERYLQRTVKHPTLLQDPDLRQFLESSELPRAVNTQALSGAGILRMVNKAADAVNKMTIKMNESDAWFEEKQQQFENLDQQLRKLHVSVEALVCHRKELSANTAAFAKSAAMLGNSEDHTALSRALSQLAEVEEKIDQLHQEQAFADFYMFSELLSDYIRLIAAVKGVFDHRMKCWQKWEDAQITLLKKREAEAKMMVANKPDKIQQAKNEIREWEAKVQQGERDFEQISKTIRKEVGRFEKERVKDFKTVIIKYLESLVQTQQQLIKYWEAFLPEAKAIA
UniProt Q86US8: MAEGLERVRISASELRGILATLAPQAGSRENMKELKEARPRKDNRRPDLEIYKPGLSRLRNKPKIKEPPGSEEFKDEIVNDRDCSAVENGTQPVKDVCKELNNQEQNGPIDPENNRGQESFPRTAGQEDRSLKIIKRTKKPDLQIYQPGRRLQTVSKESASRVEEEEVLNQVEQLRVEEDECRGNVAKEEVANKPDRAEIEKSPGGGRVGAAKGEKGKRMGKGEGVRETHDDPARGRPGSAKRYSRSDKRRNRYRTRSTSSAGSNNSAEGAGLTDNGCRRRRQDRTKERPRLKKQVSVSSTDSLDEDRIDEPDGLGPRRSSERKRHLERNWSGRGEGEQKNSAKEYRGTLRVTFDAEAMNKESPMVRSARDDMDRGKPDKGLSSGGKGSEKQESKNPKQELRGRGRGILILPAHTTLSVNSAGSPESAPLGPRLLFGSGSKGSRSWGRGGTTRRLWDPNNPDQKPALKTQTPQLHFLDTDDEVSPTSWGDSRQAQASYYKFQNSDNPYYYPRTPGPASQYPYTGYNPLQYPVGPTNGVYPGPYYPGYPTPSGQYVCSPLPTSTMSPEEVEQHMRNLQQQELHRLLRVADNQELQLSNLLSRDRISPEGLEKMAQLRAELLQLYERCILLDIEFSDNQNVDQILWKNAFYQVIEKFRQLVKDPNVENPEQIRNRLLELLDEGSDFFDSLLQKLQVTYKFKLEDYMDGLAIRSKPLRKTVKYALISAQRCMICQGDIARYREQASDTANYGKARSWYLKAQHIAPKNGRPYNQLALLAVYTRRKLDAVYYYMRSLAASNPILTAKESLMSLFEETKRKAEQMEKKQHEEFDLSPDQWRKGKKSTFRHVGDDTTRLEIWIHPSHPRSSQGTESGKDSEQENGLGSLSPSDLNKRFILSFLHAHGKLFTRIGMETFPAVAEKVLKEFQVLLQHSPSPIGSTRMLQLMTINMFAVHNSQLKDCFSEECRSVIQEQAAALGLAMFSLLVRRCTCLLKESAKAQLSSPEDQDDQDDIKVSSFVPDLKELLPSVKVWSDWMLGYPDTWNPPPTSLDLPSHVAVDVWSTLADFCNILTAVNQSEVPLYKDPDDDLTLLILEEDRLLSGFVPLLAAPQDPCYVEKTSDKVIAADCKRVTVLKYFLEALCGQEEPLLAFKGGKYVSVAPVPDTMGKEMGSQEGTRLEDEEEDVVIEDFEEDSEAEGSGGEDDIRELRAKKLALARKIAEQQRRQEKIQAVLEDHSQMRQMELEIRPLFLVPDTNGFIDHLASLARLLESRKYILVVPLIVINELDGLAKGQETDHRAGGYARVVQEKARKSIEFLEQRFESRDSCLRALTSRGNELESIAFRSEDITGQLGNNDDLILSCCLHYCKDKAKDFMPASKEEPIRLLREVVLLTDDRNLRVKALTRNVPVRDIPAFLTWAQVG
UniProt P62314, whole entry, looked up: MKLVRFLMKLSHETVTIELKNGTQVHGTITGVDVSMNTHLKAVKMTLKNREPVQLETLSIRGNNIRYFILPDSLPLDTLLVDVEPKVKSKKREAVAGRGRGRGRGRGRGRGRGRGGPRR
UniProt O60271: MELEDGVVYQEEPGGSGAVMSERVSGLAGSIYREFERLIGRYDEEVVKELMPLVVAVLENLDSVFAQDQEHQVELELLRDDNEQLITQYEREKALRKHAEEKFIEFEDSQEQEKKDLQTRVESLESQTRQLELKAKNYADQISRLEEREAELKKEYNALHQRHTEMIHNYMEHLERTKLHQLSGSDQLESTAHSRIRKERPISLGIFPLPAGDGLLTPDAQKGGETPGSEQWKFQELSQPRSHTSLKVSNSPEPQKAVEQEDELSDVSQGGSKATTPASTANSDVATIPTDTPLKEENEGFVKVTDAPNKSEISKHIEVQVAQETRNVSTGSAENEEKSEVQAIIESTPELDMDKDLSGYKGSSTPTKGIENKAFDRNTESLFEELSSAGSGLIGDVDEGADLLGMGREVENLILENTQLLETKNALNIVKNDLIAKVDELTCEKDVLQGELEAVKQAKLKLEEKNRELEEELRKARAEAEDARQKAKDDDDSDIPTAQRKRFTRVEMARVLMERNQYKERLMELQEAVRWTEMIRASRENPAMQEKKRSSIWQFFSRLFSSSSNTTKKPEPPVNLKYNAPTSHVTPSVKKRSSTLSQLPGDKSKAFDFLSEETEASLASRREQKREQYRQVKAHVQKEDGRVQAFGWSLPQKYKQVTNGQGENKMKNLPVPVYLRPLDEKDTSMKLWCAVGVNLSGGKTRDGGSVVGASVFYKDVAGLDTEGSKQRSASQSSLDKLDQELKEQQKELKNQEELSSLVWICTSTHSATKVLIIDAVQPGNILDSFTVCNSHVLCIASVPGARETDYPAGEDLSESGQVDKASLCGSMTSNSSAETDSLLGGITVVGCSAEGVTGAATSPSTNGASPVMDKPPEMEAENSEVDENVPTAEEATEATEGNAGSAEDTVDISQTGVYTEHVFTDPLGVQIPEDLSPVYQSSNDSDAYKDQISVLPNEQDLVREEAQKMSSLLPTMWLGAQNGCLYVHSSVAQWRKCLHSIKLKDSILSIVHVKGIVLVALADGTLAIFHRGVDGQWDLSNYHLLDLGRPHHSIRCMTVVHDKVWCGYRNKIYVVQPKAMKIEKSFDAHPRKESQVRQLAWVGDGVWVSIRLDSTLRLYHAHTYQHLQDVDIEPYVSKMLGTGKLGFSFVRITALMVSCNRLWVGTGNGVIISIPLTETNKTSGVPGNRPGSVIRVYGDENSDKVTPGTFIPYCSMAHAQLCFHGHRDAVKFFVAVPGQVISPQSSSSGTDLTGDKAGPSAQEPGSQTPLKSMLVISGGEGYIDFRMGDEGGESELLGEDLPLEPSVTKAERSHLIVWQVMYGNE
UniProt O14508, whole entry, looked up: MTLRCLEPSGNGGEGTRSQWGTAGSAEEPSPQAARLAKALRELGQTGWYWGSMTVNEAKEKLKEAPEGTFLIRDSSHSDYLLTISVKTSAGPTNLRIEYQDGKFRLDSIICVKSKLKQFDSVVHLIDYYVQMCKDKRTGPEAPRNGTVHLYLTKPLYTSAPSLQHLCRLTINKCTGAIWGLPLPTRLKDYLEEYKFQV

Legend:
Experiment in all cases: log2 fold change, soluble protein after heating vs DMSO (PISA); higher = thermal stabilisation; K562 lysate, 10 uM; active = over 0.2 and 3.5 SD of the protein, either way, in both replicates (recomputed)
lapatinib = compound: CS(=O)(=O)CCNCc1ccc(-c2ccc3ncnc(Nc4ccc(OCc5cccc(F)c5)c(Cl)c4)c3c2)o1 [lapatinib]
How it was run: (§1)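 Thermal stability, expressed as log-two fold change relative to solvent controls, is given from duplicates. Crude K562 extract in PBS pH 7.4 with 1 mM MgCl2, at 1 mg/mL protein, was treated with 10 μM compound for 30 min and heated in aliquots for 3 min across 48°C-58°C. After pooling, adjustment to 0.5% NP-40 at 4°C and centrifugation at 21,000xg for 90 min, supernatant protein was measured by TMTpro 16plex LC-MS/MS with channel sums equalised.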

pictilisib = compound: CS(=O)(=O)N1CCN(Cc2cc3nc(-c4cccc5[nH]ncc45)nc(N4CCOCC4)c3s2)CC1 [pictilisib]
How it was run: as §1

crizotinib = compound: C[C@@H](Oc1cc(-c2cnn(C3CCNCC3)c2)cnc1N)c1c(Cl)ccc(F)c1Cl [crizotinib]
How it was run: as §1

[1] = compound: C[C@H](C1=CC=C(C=C1)C(=O)NC2=C3C=CNC3=NC=C2)N
How it was run: as §1

duvelisib = compound: C[C@H](Nc1ncnc2nc[nH]c12)c1cc2cccc(Cl)c2c(=O)n1-c1ccccc1 [duvelisib]
How it was run: as §1

gandotinib = compound: Cc1cc(Nc2cc(CN3CCOCC3)c3nc(C)c(Cc4ccc(Cl)cc4F)n3n2)n[nH]1 [gandotinib]
How it was run: as §1

tozasertib = compound: Cc1cc(Nc2cc(N3CCN(C)CC3)nc(Sc3ccc(NC(=O)C4CC4)cc3)n2)n[nH]1 [tozasertib]
How it was run: as §1

doramapimod = compound: Cc1ccc(-n2nc(C(C)(C)C)cc2NC(=O)Nc2ccc(OCCN3CCOCC3)c3ccccc23)cc1 [doramapimod]
How it was run: as §1

bafetinib = compound: Cc1ccc(NC(=O)c2ccc(CN3CC[C@H](N(C)C)C3)c(C(F)(F)F)c2)cc1Nc1nccc(-c2cncnc2)n1 [bafetinib]
How it was run: as §1

[2] = compound: Cc1cccc(CC(=O)N2CCc3c2ccc(-c2cn(C)c4ncnc(N)c24)c3F)n1
How it was run: as §1

nilotinib = compound: Cc1cn(-c2cc(NC(=O)c3ccc(C)c(Nc4nccc(-c5cccnc5)n4)c3)cc(C(F)(F)F)c2)cn1 [nilotinib]
How it was run: as §1

[3] = compound: Cc1nc(Nc2n[nH]c3c2CN(C(=O)N[C@H](CN(C)C)c2ccccc2)C3(C)C)c2sccc2n1
How it was run: as §1

dasatinib = compound: Cc1nc(Nc2ncc(C(=O)Nc3c(C)cccc3Cl)s2)cc(N2CCN(CCO)CC2)n1 [dasatinib]
How it was run: as §1

[4] = compound: Cc1ncc(-c2ccnc(Nc3ccc(S(C)(=O)=O)cc3)n2)n1C(C)C
How it was run: as §1

[5] = compound: Cn1cc(-c2ccc3c(c2)CCN3C(=O)Cc2cccc(C(F)(F)F)c2)c2c(N)ncnc21
How it was run: as §1

quisinostat = compound: Cn1cc(CNCC2CCN(c3ncc(C(=O)NO)cn3)CC2)c2ccccc21 [quisinostat]
How it was run: as §1

tipifarnib = compound: Cn1cncc1[C@@](N)(c1ccc(Cl)cc1)c1ccc2c(c1)c(-c1cccc(Cl)c1)cc(=O)n2C [tipifarnib]
How it was run: as §1

[6] = compound: NC(=O)Nc1cc(-c2cccc(F)c2)sc1C(=O)N[C@H]1CCCNC1
How it was run: as §1

[7] = compound: NC(=O)c1cnc(N[C@@H]2CCCC[C@@H]2N)nc1Nc1cccc(-n2nccn2)c1
How it was run: as §1

[8] = compound: NC1(c2ccc(-c3nc4ccn5c(=O)[nH]nc5c4cc3-c3ccccc3)cc2)CCC1
How it was run: as §1

Measured: log2 fold change

SNRNP70 (UniProt P08621)
inactive: lapatinib -0.023 | pictilisib 0.005 | crizotinib 0.013 | [1] -0.004 | duvelisib -0.009 | gandotinib -0.005 | tozasertib -0.01 | doramapimod 0.003 | bafetinib -0.035 | [2] -0.002 | nilotinib 0.001 | [3] -0.001 | dasatinib 0.015 | [4] -0.019 | [5] 0.004 | quisinostat 0.026 | tipifarnib 0 | [6] -0.017 | [7] -0.004 | [8] -0.007

SNRNP200 (UniProt O75643)
inactive: lapatinib -0.011 | pictilisib -0.003 | crizotinib -0.014 | [1] -0.041 | duvelisib 0.028 | gandotinib -0.009 | tozasertib -0.003 | doramapimod -0.005 | bafetinib -0.043 | [2] 0.059 | nilotinib -0.013 | [3] 0.001 | dasatinib -0.014 | [4] -0.004 | [5] 0.011 | quisinostat -0.003 | tipifarnib 0 | [6] 0.019 | [7] 0.015 | [8] -0.026

SPAG7 (UniProt O75391)
inactive: lapatinib 0.014 | pictilisib -0.027 | crizotinib 0.03 | [1] -0.082 | duvelisib 0.014 | gandotinib 0.055 | tozasertib 0.001 | doramapimod -0.006 | bafetinib 0.015 | [2] 0.033 | nilotinib -0.026 | [3] 0.011 | dasatinib 0.022 | [4] 0.027 | [5] 0 | quisinostat -0.01 | tipifarnib 0.049 | [6] -0.024 | [7] 0.01 | [8] -0.032

SMARCA4 (UniProt P51532)
inactive: lapatinib -0.029 | pictilisib -0.008 | crizotinib -0.01 | [1] -0.009 | duvelisib -0.003 | gandotinib -0.022 | tozasertib 0.012 | doramapimod 0.008 | bafetinib -0.008 | [2] 0.054 | nilotinib -0.002 | [3] 0.023 | dasatinib -0.042 | [4] -0.019 | [5] 0.004 | quisinostat -0.029 | tipifarnib -0.018 | [6] 0.043 | [7] 0.004 | [8] -0.024

SMARCE1 (UniProt Q969G3)
inactive: lapatinib 0.007 | pictilisib -0.004 | crizotinib 0.034 | [1] 0.048 | duvelisib -0.027 | gandotinib -0.059 | tozasertib 0.015 | doramapimod 0 | bafetinib -0.004 | [2] -0.055 | nilotinib 0.014 | [3] 0.03 | dasatinib -0.055 | [4] 0 | [5] 0.001 | quisinostat 0.079 | tipifarnib 0.014 | [6] -0.007 | [7] -0.001 | [8] -0.005

SNAPIN (UniProt O95295)
inactive: lapatinib -0.014 | pictilisib -0.102 | crizotinib -0.024 | [1] -0.053 | duvelisib 0.007 | gandotinib 0.025 | tozasertib 0.034 | doramapimod 0.067 | bafetinib -0.088 | [2] 0.023 | nilotinib -0.013 | [3] 0.001 | dasatinib 0.052 | [4] 0.011 | [5] -0.039 | quisinostat -0.017 | tipifarnib -0.033 | [6] -0.031 | [7] 0.032 | [8] -0.003

SNAP23 (UniProt O00161)
inactive: lapatinib 0.005 | pictilisib -0.035 | crizotinib 0.067 | [1] 0.034 | duvelisib -0.004 | gandotinib 0.007 | tozasertib 0.005 | doramapimod 0.002 | bafetinib 0.059 | [2] -0.05 | nilotinib 0.001 | [3] 0.015 | dasatinib 0.045 | [4] -0.013 | [5] 0 | quisinostat 0.035 | tipifarnib 0.036 | [6] -0.019 | [7] -0.016 | [8] 0.031

Looked up one by one from the list above (two):
SMARCA4 (UniProt P51532)
inactive: lapatinib -0.029 | pictilisib -0.008 | crizotinib -0.01 | [1] -0.009 | duvelisib -0.003 | gandotinib -0.022 | tozasertib 0.012 | doramapimod 0.008 | bafetinib -0.008 | [2] 0.054 | nilotinib -0.002 | [3] 0.023 | dasatinib -0.042 | [4] -0.019 | [5] 0.004 | quisinostat -0.029 | tipifarnib -0.018 | [6] 0.043 | [7] 0.004 | [8] -0.024

SMARCE1 (UniProt Q969G3)
inactive: lapatinib 0.007 | pictilisib -0.004 | crizotinib 0.034 | [1] 0.048 | duvelisib -0.027 | gandotinib -0.059 | tozasertib 0.015 | doramapimod 0 | bafetinib -0.004 | [2] -0.055 | nilotinib 0.014 | [3] 0.03 | dasatinib -0.055 | [4] 0 | [5] 0.001 | quisinostat 0.079 | tipifarnib 0.014 | [6] -0.007 | [7] -0.001 | [8] -0.005

Continuation:

SNX2 (UniProt O60749)
inactive: lapatinib -0.038 | pictilisib -0.003 | crizotinib -0.038 | [1] -0.023 | duvelisib -0.035 | gandotinib -0.058 | tozasertib -0.014 | doramapimod -0.06 | bafetinib -0.024 | [2] -0.017 | nilotinib 0.003 | [3] -0.01 | dasatinib -0.026 | [4] 0.013 | [5] 0.03 | quisinostat 0.044 | tipifarnib 0.003 | [6] 0.01 | [7] -0.004 | [8] 0.021

SORT1 (UniProt Q99523)
inactive: lapatinib -0.006 | pictilisib -0.02 | crizotinib -0.003 | [1] -0.016 | duvelisib 0.036 | gandotinib 0.034 | tozasertib 0.002 | doramapimod -0.028 | bafetinib 0.001 | [2] 0.014 | nilotinib -0.012 | [3] 0.019 | dasatinib 0.033 | [4] -0.057 | [5] 0.005 | quisinostat -0.026 | tipifarnib -0.021 | [6] 0.004 | [7] 0.016 | [8] 0.024

SMG6 (UniProt Q86US8)
inactive: lapatinib 0.009 | pictilisib -0.032 | crizotinib 0.028 | [1] -0.097 | duvelisib -0.1 | gandotinib 0.025 | tozasertib -0.096 | doramapimod 0.051 | bafetinib -0.049 | [2] 0.039 | nilotinib -0.067 | [3] 0.028 | dasatinib 0.048 | [4] 0.079 | [5] 0.082 | quisinostat -0.05 | tipifarnib -0.065 | [6] 0.028 | [7] 0.065 | [8] 0.011

SMG1 (UniProt Q96Q15)
inactive: lapatinib -0.025 | pictilisib -0.05 | crizotinib -0.019 | [1] 0.002 | duvelisib 0.003 | gandotinib -0.105 | tozasertib 0.024 | doramapimod 0.015 | bafetinib -0.057 | [2] 0.049 | nilotinib -0.029 | [3] 0.026 | dasatinib -0.021 | [4] 0.038 | [5] 0.006 | quisinostat -0.05 | tipifarnib -0.028 | [6] 0.061 | [7] 0 | [8] -0.032

SNRPD1 (UniProt P62314)
inactive: lapatinib -0.037 | pictilisib -0.055 | crizotinib -0.014 | [1] 0.005 | duvelisib 0.009 | gandotinib 0.027 | tozasertib 0.004 | doramapimod -0.037 | bafetinib -0.026 | [2] -0.018 | nilotinib 0.013 | [3] -0.015 | dasatinib -0.045 | [4] -0.014 | [5] -0.065 | quisinostat -0.025 | tipifarnib -0.009 | [6] 0.026 | [7] -0.083 | [8] 0.001

SMC4 (UniProt Q9NTJ3)
inactive: lapatinib -0.028 | pictilisib -0.002 | crizotinib -0.007 | [1] 0.068 | duvelisib 0.009 | gandotinib -0.154 | tozasertib -0.012 | doramapimod -0.026 | bafetinib -0.021 | [2] -0.051 | nilotinib -0.01 | [3] 0.009 | dasatinib -0.03 | [4] 0.016 | [5] 0.003 | quisinostat -0.014 | tipifarnib -0.003 | [6] 0.027 | [7] 0.009 | [8] -0.023

SNX27 (UniProt Q96L92)
inactive: lapatinib 0.01 | pictilisib -0.032 | crizotinib -0.026 | [1] 0.019 | duvelisib -0.012 | gandotinib -0.128 | tozasertib 0.044 | doramapimod 0.027 | bafetinib -0.042 | [2] 0.027 | nilotinib -0.016 | [3] -0.019 | dasatinib -0.003 | [4] -0.004 | [5] 0.004 | quisinostat -0.027 | tipifarnib 0.023 | [6] 0.033 | [7] 0.018 | [8] -0.031

SPAG9 (UniProt O60271)
inactive: lapatinib 0.003 | pictilisib 0.008 | crizotinib 0.006 | [1] -0.034 | duvelisib 0.004 | gandotinib 0.05 | tozasertib 0.009 | doramapimod -0.006 | bafetinib 0.009 | [2] 0.023 | nilotinib 0.002 | [3] 0 | dasatinib 0.027 | [4] -0.009 | [5] -0.014 | quisinostat -0.002 | tipifarnib -0.001 | [6] -0.002 | [7] 0.001 | [8] -0.001

SOCS2 (UniProt O14508)
inactive: lapatinib -0.046 | pictilisib -0.013 | crizotinib -0.02 | [1] -0.032 | duvelisib 0.003 | gandotinib 0.045 | tozasertib 0.037 | doramapimod 0.035 | bafetinib -0.022 | [2] 0.107 | nilotinib -0.007 | [3] -0.026 | dasatinib 0.012 | [4] 0.034 | [5] 0.003 | quisinostat -0.003 | tipifarnib 0.038 | [6] 0.036 | [7] 0.011 | [8] -0.023
